# Measured values: PubChem BioAssay AID504467 (National Center for Advancing Translational Sciences (NCATS), 2011)
# The campaign covered roughly 330,000 compounds. About 7,700 (2.3%) were called active. The inconclusive results got no clear call from the source; some entries with a clear call stand among them for comparison. The call rests on the fitted dose curve; in most records, active means well fitted inhibition curve with a large enough effect; inconclusive means small, poorly fitted or top-dose-only effect, or effect the other way; inactive means flat fitted curve, though single readings scatter. Potencies of inconclusive entries are doubtful fits and often do not repeat.
# Assay: qHTS screen for small molecules that inhibit ELG1-dependent DNA repair in human embryonic kidney (HEK293T) cells expressing luciferase-tagged ELG1; further: nearly all actives have a fitted effect of over 55% in size
# Settings: HEK293T ELG1-luciferase reporter, luminescence, 16 h, DNA damage induced by 5-fluorouridine; series mostly up to 46.1 µM
# Summary of the method: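 Reporter activity after DNA damage by 5-fluorouridine is monitored. Compound-treated cells incubate 16 hr at 37 °C, then ONE-Glo is added for 30 min before luminescence reading.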
# Potency means the concentration at half of the fitted maximal effect.
row,SMILES,Potency
1,CC(C)(C)c1cc(C(=O)C[n+]2ccc(C(=O)NCCCO)cc2)cc(C(C)(C)C)c1O,"inconclusive: 18.3 µM [inhibitor, single point]"
2,O=C(COc1ccc(Cl)cc1Cl)N(c1ccccn1)C1CCCCC1,"inconclusive: 29.1 µM [activator, single point]"
3,CCOC(=O)C1(CCOc2ccccc2)CCN(Cc2ccc3nonc3c2)CC1,inactive
4,Cc1cc(C)n(-c2ccc(NC(=O)C3CCCCN3C(=O)c3cc(C)oc3C)cc2)n1 (centres undefined),inactive
5,COc1ccc(-c2nnc(NC(=O)c3ccccc3C)o2)cc1,"inconclusive: 14.6 µM [inhibitor, partial curve]"
6,CCOc1cc(/C=C/C(=O)Nc2ccc(C(=O)NCCN(CC)CC)cc2)ccc1OCC(C)C,inactive
7,CC(C)[C@H](NS(=O)(=O)c1ccc2c(c1)OCCO2)C(=O)OCC(=O)Nc1cc(Cl)ccc1Cl,active: 18.4 µM
8,C#Cc1ccc([C@@H]2C=C(C(=O)NCc3ccccc3)O[C@H](OCC)[C@H]2CCCO)cc1,"inconclusive: 20.6 µM [inhibitor, partial curve, poor fit]"
9,CC1=Nc2cc(C(=O)NCCCN3CCOCC3)ccc2Sc2c(C)ccc(C)c21,"inconclusive: 29.1 µM [activator, single point]"
10,COc1cccc2cc(C(=O)C3=C(O)C(=O)N(CCN4CCOCC4)C3c3cccc(Cl)c3)oc12 (centres undefined),inactive
11,Cc1cc(C(=O)OCC(=O)N(C)C2CCS(=O)(=O)C2)c(C)n1-c1ccccc1 (centres undefined),"inconclusive: 20.6 µM [inhibitor, partial curve, poor fit]"
12,CCOc1cc(CN2CCCCC2)ccc1OC,inactive
13,CCCCCOc1ccc(NS(C)(=O)=O)cc1,"inconclusive: 9.2 µM [activator, partial curve]"
14,O=C(NCCOc1ccccc1)c1ccc2c(c1)S(=O)(=O)c1cc(Cl)ccc1C2=O,inactive
15,O=C(CCl)N1CCN(CC(=O)N2CCCC2)CC1,"inconclusive: 16.4 µM [activator, partial curve]"
16,Cc1ccc(/C=N\NC(=O)CNC(=O)C23CC4CC(CC(C4)C2)C3)o1,inactive
17,CC(C)(C)OC(=O)N[C@@H](Cc1ccccc1)c1nnc(SCC(=O)c2ccc(Cl)cc2)o1,"inconclusive: 29.1 µM [inhibitor, single point]"
18,COc1cc(CN2CCCC(C(=O)Nc3cccc(-n4cccn4)c3)C2)ccc1F (centres undefined),inactive
19,COc1cccc(C(C)N(C)Cc2nc(COc3ccccc3)no2)c1 (centres undefined),"inconclusive: 23.1 µM [inhibitor, single point]"
20,CCCCn1c(N)c(N(CC)C(=O)c2c(C)noc2C)c(=O)[nH]c1=O,inactive
21,COc1ccc(NC(=O)c2oc3ccc(S(=O)(=O)N4CCOCC4)cc3c2C)cc1,"inconclusive: 25.9 µM [inhibitor, single point]"
22,COc1cc(CNC(=O)c2cccc(COc3ccc(Cl)cc3)c2)cc(OC)c1,"inconclusive: 1.64 µM [activator, partial curve]"
23,Cc1ccc(C(=O)Nc2ccc(S(=O)(=O)N3CCN(C)CC3)cc2)cc1,"inconclusive: 9.2 µM [activator, partial curve, poor fit]"

row,SMILES,Potency
1,COc1ccc(/C(N)=N/OC(=O)Cc2ccc(C)cc2)cc1,"inconclusive: 23.1 µM [activator, partial curve]"
2,CCN(CC)c1ccc(NC(=O)c2cc3ccccc3o2)c(C)c1,"inconclusive: 10.3 µM [activator, partial curve, poor fit]"
3,Cc1ccc(CN2CCN(CC(=O)N=Nc3c(O)[nH]c4ccccc34)CC2)cc1,active: 8.2 µM
4,NS(=O)(=O)c1ccc(NC(=S)N2CCN(c3cccc(Cl)c3)CC2)cc1,inactive
5,CCOc1cccc(-c2c(C(=O)N/N=C/c3ccc(C)s3)nnn2-c2nonc2N)c1,"inconclusive: 20.6 µM [inhibitor, single point]"
6,O=[N+]([O-])c1cc(N=Nc2ccc3ccccc3c2)ccc1O,"inconclusive: 14.6 µM [activator, partial curve]"
7,O=C(O)Cc1ccc(NCc2ccccc2Cl)cc1,"inconclusive: 7.3 µM [activator, partial curve, poor fit]"
8,Cc1ccc2c(c1)NCC(C(=O)NC1CCCCC1)O2 (centres undefined),inactive
9,CCOC(=O)C1=C(C)N2C(=C(C#N)[C@@H]1c1ccc(C(=O)OC)cc1)SC[C@@]2(O)C(C)(C)C,"inconclusive: 29.1 µM [inhibitor, single point]"
10,O=C(CSc1ncnc2c1cnn2CCc1ccccc1)Nc1cccc(C(F)(F)F)c1,"inconclusive: 23.1 µM [inhibitor, partial curve]"
11,O=C(Nc1cccc([N+](=O)[O-])c1)c1ccc2c(c1)C(=O)N(c1ccccn1)C2=O,"inconclusive: 29.1 µM [activator, partial curve, poor fit]"
12,NS(=O)(=O)c1cc2c(cc1C(F)(F)F)NC(Cc1ccccc1)NS2(=O)=O (centres undefined),inactive
13,CCOC(=O)Cn1c2c(c(=N)c3ccccc31)CCC2,inactive
14,Cc1ccc(NNC(=O)C(O)(c2cccc(C(F)(F)F)c2)c2cccc(C(F)(F)F)c2)cc1,active: 18.4 µM
15,O=C(O)C1C2CCC(O2)C1C(=O)NCCC1=CCCCC1 (centres undefined),"inconclusive: 18.4 µM [activator, single point]"
16,Cc1cccc(C(=O)N2CCc3cc(-c4nc(NC(=O)Cn5nnc6ccccc6c5=O)sc4C)ccc32)c1,"inconclusive: 2.91 µM [inhibitor, full curve]"
17,CCn1c2ccccc2c2cc(NC(=O)c3ccc(Br)o3)ccc21,inactive
18,COCCCNC(=S)N1CCN(c2ccc([N+](=O)[O-])cc2)CC1,"inconclusive: 16.4 µM [inhibitor, single point]"
19,Cc1cc(-c2ccc(C(C)C)c(S(=O)(=O)N3CC(=O)Nc4ccccc43)c2)on1,inactive
20,COC(=O)c1ccc(NC(=O)c2cccc(N3C(=O)CCC3=O)c2)cc1,inactive
21,O=C(CCCc1ccccc1)Nc1ccc(Br)cc1F,"inconclusive: 20.6 µM [activator, single point]"
22,O=C(COC(=O)c1ccc(Cl)nc1)Nc1ccc(N2CCCCC2)cc1,"inconclusive: 20.6 µM [activator, single point]"
23,COc1ccc(C(=O)Nc2ccc3nc(N4CCOCC4)sc3c2)cc1OC,"inconclusive: 35.5 µM [activator, single point]"

row,SMILES,Potency
1,c1ccc2nc(N3CCN(Cc4ccc5c(c4)OCO5)CC3)cnc2c1,inactive
2,COc1cccc(C(C2=C(O)CC(C)(C)CC2=O)C2C(=O)CC(C)(C)CC2=O)c1 (centres undefined),"inconclusive: 16.4 µM [activator, partial curve, poor fit]"
3,N#C/C(=C/c1ccc2c(c1)OCO2)C(=O)NCCc1c[nH]c2ccccc12,"inconclusive: 29.1 µM [inhibitor, single point]"
4,O=C(CSc1nnc(NC(=O)c2ccccc2)s1)NC1CCCC1,"inconclusive: 13 µM [activator, partial curve]"
5,COc1cc(OC)cc(C(=O)Nc2ccc(-n3cnnn3)c(C)c2)c1,"inconclusive: 14.6 µM [activator, partial curve]"
6,O=c1c2ccccc2nnn1CSc1nnc(C2COc3ccccc3O2)n1-c1ccccc1 (centres undefined),"inconclusive: 12.6 µM [inhibitor, partial curve, poor fit]"
7,Oc1ccc(-c2csc(Nc3ccccn3)n2)cc1O,"inconclusive: 6.51 µM [activator, single point]"
8,CCN(CC)S(=O)(=O)c1cc(NC(=O)CCn2[nH]c(=O)ccc2=O)ccc1C,"inconclusive: 16.4 µM [activator, partial curve]"
9,CCC(C)n1c(S(=O)(=O)O)nc2ccccc21 (centres undefined),inactive
10,Cc1ccccc1NCCC(=O)Nc1ccc(Cl)cc1,"inconclusive: 20.6 µM [activator, single point]"
11,Oc1ccc(/C=N/n2cc(-c3ccccc3)[nH]c2=S)cc1,inactive
12,Cc1ccc2nc(CCc3nc4ccc(C)cc4o3)oc2c1,inactive
13,COc1ccc(CN(C)C(=O)c2cc(S(=O)(=O)NCc3ccccc3)ccc2C)c(OC)c1,"inconclusive: 29.1 µM [inhibitor, single point]"
14,CC(C)CN1CCN(C(=O)CCc2nnc(Cc3c[nH]c4ccccc34)o2)[C@@H](C)C1=O,"inconclusive: 29.1 µM [activator, single point]"
15,COc1ccccc1CNC(=O)CSCc1cnn(-c2ccccc2)c1-n1cccc1,"inconclusive: 23.1 µM [inhibitor, single point]"
16,Nc1ccccc1Nc1cc(-c2ccccc2)[nH]n1,"inconclusive: 6.51 µM [activator, single point]"
17,CC(C)CC(=O)Nc1cc2c3c(c1)C(C)C(=O)N3CCC2 (centres undefined),"inconclusive: 23.1 µM [activator, single point]"
18,CC1C(=O)N2CCCc3cc(S(=O)(=O)NCc4ccc(F)cc4)cc1c32 (centres undefined),"inconclusive: 20.6 µM [inhibitor, single point]"
19,O=C(CSc1cccc2cccnc12)N1CCCC1,"inconclusive: 29.1 µM [inhibitor, single point]"
20,Cc1onc(-c2ccccc2Cl)c1C(=O)NC(=S)NCCc1ccccc1,inactive
21,CCOC(=O)C(Sc1cc(-c2ccccc2)nc2ncnn12)C(C)=O (centres undefined),inactive
22,CCNC(=O)CC1C(=O)N(c2ccc(OC)cc2)C(=S)N1CCc1ccncc1 (centres undefined),"inconclusive: 0.164 µM [activator, partial curve, poor fit]"
23,CC(C)NC(=O)N(C)C[C@H]1Oc2ccc(NS(=O)(=O)c3ccc(F)cc3)cc2C(=O)N([C@H](C)CO)C[C@@H]1C,inactive

# Molecules from the list above that have a CF3 group (3):
row,SMILES,Potency
10,O=C(CSc1ncnc2c1cnn2CCc1ccccc1)Nc1cccc(C(F)(F)F)c1,"inconclusive: 23.1 µM [inhibitor, partial curve]"
12,NS(=O)(=O)c1cc2c(cc1C(F)(F)F)NC(Cc1ccccc1)NS2(=O)=O (centres undefined),inactive
14,Cc1ccc(NNC(=O)C(O)(c2cccc(C(F)(F)F)c2)c2cccc(C(F)(F)F)c2)cc1,active: 18.4 µM
